Laboratory results taken from paper PMC8750328.
These are yes or no findings as the source states them, for the method shown. Binding seen in cells or lysates may run through a third protein. Here binding means that the protein was enriched with, or labelled near, the bait; the list need not be complete. For some of these results: No binding means not detected with the bait.

T1: Nse1-R188E-HBH (S. pombe) (UniProt Q53EK2)
T1 sequence: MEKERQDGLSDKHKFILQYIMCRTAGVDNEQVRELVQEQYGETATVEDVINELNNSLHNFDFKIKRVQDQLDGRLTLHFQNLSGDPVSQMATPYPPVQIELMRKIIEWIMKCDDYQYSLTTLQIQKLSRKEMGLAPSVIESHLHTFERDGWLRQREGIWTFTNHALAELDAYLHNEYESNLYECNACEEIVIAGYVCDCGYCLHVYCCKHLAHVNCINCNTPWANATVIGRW

T2: Nse1-HBH (S. pombe) (UniProt Q53EK2)
T2 sequence: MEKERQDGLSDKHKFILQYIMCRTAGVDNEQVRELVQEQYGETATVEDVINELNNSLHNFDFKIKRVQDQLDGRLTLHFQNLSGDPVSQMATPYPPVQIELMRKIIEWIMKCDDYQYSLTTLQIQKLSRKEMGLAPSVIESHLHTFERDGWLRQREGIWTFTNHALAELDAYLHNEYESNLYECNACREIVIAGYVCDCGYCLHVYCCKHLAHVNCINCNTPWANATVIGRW


Assays:
[1] = target: T1, Nse1-R188E-HBH (S. pombe); experiment: affinity purification with mass spectrometry; Nse1-HBH tagged at the endogenous locus in S. pombe; proteins cross-linked by 1% formaldehyde; tandem purification under denaturing conditions on Ni sepharose and Streptavidin agarose; trypsin digest, LC-MS; untagged strain as control for contaminants
[2] = target: T2, Nse1-HBH (S. pombe); experiment: as above

binding [1] | binding [2] | Binder
no binding |  | Uba1 (E1 ubiquitin-activating enzyme) (enzyme, UniProt O94609 1-1012) MSNNMNIDQTDQNTIDEGLYSRQLYVLGHEAMKQMSQSNVLIIGCKGLGVEIAKNVCLAGVKSVTLYDPQPTRIEDLSSQYFLTEDDIGVPRAKVTVSKLAELNQYVPVSVVDELSTEYLKNFKCVVVTETSLTKQLEINDFTHKNHIAYIAADSRGLFGSIFCDFGENFICTDTDGNEPLTGMIASITDDGVVTMLEETRHGLENGDFVKFTEVKGMPGLNDGTPRKVEVKGPYTFSIGSVKDLGSAGYNGVFTQVKVPTKISFKSLRESLKDPEYVYPDFGKMMRPPQYHIAFQALSAFADAHEGSLPRPRNDIDAAEFFEFCKKIASTLQFDVELDEKLIKEISYQARGDLVAMSAFLGGAVAQEVLKATTSKFYPLKQYFYFDSLESLPSSVTISEETCKPRGCRYDGQIAVFGSEFQEKIASLSTFLVGAGAIGCEMLKNWAMMGVATGESGHISVTDMDSIEKSNLNRQFLFRPRDVGKLKSECASTAVSIMNPSLTGKITSYQERVGPESEGIFGDEFFEKLSLVTNALDNVEARMYVDRRCVFFEKPLLESGTLGTKGNTQVVVPHLTESYGSSQDPPEKSFPICTLKNFPNRIEHTIAWARDLFEGLFKQPIDNVNMYLSSPNFLETSLKTSSNPREVLENIRDYLVTEKPLSFEECIMWARLQFDKFFNNNIQQLLFNFPKDSVTSTGQPFWSGPKRAPTPLSFDIHNREHFDFIVAAASLYAFNYGLKSETDPAIYERVLAGYNPPPFAPKSGIKIQVNENEEAPETAANKDKQELKSIADSLPPPSSLVGFRLTPAEFEKDDDSNHHIDFITAASNLRAMNYDITPADRFKTKFVAGKIVPAMCTSTAVVSGLVCLELVKLVDGKKKIEEYKNGFFNLAIGLFTFSDPIASPKMKVNGKEIDKIWDRYNLPDCTLQELIDYFQKEEGLEVTMLSSGVSLLYANFQPPKKLAERLPLKISELVEQITKKKLEPFRKHLVLEICCDDANGEDVEVPFICIKL
 | binds | Nse4 (endogenous, found in Nse1-HBH complexes) (protein, UniProt Q6BDR8 1-300, ubiquitination at K181 (detected by MS)) MSSIDKRDLRKRYRNLINKVQESRLELVDEENNNLYETITTANDLFSSVDAPTEATLDALLLTKTVDLASIKARQLHIGRPKFNIELFTKNIKQFLNYPTSHSNVTRIQEIDTAWSRLGKLASNCEKQPASLNLMVGPLSFRKKERNIQRRERLQKAPNVLTQPTMLNERNITTQENNTTKNVLHISRLLQAHQPVNFLKFITNPQSYPQTVENLFYVSFLFKEGKAALVENESGILMLETRIPPTDDQVVAGEIRNIQLVLDMTMDLYENIIKEYNIKESIIPTRAPVETSTNSNTWYG
no binding | binds | Ubc7 (enzyme, UniProt O00102 1-166) MSKAMALRRLMKEYKELTENGPDGITAGPSNEDDFFTWDCLIQGPDGTPFEGGLYPATLKFPSDYPLGPPTLKFECEFFHPNVYKDGTVCISILHAPGDDPNMYESSSERWSPVQSVEKILLSVMSMLAEPNDESGANIDACKMWREDREEYCRVVRRLARKTLGL
